In test [1] the target is T1, ME31B-GFP (Drosophila melanogaster) (UniProt P23128).
T1 sequence: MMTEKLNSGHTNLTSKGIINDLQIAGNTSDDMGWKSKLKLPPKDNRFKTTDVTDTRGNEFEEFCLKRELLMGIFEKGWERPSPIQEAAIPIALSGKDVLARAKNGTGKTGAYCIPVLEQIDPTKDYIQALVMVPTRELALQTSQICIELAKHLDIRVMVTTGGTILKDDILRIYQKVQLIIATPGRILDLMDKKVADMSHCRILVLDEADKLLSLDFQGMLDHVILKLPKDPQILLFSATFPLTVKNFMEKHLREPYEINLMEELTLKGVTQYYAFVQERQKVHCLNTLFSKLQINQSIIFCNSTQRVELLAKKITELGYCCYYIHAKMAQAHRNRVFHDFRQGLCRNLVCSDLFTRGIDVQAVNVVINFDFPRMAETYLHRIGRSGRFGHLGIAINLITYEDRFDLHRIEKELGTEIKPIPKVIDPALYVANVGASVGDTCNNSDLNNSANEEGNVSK
Kind of test: affinity purification with mass spectrometry.

Sequences of proteins named here, by UniProt entry; tags and fusion partners are left off. A change or cut given only in a name is not applied to a line headed by its entry.
UniProt O77430: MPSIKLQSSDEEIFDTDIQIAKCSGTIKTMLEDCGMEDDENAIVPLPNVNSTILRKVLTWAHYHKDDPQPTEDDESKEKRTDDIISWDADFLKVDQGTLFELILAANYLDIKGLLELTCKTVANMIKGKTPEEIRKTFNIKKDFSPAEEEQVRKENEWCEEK
UniProt Q9W2N5: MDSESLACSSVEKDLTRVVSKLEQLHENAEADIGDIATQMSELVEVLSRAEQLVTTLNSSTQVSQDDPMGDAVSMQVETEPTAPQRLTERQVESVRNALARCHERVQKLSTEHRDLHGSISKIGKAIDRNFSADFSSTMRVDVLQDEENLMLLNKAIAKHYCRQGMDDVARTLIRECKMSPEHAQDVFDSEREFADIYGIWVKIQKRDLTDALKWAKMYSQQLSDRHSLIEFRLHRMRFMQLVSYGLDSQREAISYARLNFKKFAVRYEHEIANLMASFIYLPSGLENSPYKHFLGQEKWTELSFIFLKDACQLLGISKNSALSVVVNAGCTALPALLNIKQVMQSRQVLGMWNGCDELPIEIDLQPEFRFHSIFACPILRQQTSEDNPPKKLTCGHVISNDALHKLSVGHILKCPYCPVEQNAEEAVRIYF
UniProt Q9VWS1: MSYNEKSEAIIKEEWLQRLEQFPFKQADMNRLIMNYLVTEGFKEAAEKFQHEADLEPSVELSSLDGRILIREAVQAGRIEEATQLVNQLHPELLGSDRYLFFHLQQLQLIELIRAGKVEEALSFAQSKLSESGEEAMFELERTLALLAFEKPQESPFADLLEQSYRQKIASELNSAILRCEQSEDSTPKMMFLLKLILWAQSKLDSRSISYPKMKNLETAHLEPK
UniProt E2QCI6: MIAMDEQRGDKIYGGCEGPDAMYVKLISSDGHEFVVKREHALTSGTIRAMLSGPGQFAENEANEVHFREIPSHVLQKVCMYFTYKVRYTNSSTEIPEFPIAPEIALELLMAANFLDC

The target in test [2] is T2, Cup-GFP (Drosophila melanogaster) (UniProt Q9VMA3).
T2 sequence: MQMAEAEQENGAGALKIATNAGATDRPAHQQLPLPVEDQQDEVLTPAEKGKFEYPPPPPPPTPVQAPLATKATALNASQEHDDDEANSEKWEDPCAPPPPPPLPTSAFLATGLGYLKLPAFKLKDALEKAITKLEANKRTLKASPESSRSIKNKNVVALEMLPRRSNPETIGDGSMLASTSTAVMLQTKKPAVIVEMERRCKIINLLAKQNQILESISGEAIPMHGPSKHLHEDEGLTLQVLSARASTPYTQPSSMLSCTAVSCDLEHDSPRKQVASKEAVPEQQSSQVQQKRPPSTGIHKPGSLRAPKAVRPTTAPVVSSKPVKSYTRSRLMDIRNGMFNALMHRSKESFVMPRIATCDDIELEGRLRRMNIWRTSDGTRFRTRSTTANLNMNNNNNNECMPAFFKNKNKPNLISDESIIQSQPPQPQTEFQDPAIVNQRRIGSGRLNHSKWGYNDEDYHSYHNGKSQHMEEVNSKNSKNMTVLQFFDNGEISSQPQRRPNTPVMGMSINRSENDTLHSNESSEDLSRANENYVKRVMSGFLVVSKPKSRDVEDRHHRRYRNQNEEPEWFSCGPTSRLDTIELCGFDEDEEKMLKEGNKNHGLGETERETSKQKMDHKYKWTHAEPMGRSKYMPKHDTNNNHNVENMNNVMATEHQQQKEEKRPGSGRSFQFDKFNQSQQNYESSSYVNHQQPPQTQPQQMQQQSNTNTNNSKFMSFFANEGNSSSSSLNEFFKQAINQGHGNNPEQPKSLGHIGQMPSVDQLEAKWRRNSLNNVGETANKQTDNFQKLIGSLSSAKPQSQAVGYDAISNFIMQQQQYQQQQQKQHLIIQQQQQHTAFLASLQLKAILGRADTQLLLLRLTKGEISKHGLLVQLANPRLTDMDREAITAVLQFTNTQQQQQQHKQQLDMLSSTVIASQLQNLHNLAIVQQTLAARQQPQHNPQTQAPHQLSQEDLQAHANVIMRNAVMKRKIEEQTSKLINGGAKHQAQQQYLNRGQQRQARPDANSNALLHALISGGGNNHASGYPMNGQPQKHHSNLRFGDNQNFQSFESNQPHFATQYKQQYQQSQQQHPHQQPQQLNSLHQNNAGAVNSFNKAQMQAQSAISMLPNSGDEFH
Kind of test: affinity purification with mass spectrometry.

Results are given in words; binding and its absence hold for the method and conditions named. In cells and extracts the contact can be indirect. A yes stands for co-enrichment or nearness to the bait. Other partners may have been found. A no says only that the protein was not detected with the bait. Tags and fused reporters may be left off the sequences shown.

For the molecule Muskelin, the binding result in test [1] and in test [2] was “binds” in each case.
As for SkpA (from UniProt O77430 1-162), the binding result in test [1] and in test [2] was “binds” throughout.
For the molecule EloB, the binding entry in test [1] and in test [2] was “binds” in each case.
Regarding CG3295 (from UniProt Q9W2N5), the binding entry in test [1] and in test [2] was “binds” in each case.
With CG6617 (from UniProt Q9VWS1), the binding result in test [1] and in test [2] was “binds” in each case.
EloC (from UniProt E2QCI6): the binding result in test [1] and in test [2] was “binds” throughout.
In the case of Slmb, the binding entry in test [1] and in test [2] was “binds” throughout.

B1: Cup (protein, UniProt Q9VMA3 1-1117)
chain: T2 sequence
In the case of B1, the binding entry in test [1] is “binds”.

B2: CG7611 (protein, UniProt Q7K0L4 1-630)
chain: MQSTSSTSSGSCSRPLEGSTLNSGGSAENVARDGGSGDDSVGIGDENPSGSSAATNGHDSKHNGFIVNNNGSSSRIVDGENNRENTSCSGVQLDKSNQEIIRLIGQYLHDVGLDKSVQTLMLESGCYLEHPSATKFREHVLMGDWSKADSDLKDLEPLIDNGKLATITEMKFILLEQKYLEHLDDGNPLDALHVLRSELTPLQHNITRVHQLSSYMMCSTNQDLYQRAKWEGKGILSRALVMERLQTFMPPSVMMSPRRLRTLLQQAVELQSQHCPCHDMAWETNLETVSLLTDHCCTTDGFPMQTIQILTDHCDEVWFCKFSPDGLKLATGSKDSTVIIWDVDPYKLTLKHRRVLDGQAQLSVSFVSWSPDSKLILVGGTEDSHELYIWNVDDGKLVVKFSQSLEDSLACGAFSRDGARFVCGGQKGQLYLCDLNGTIVDSWEGVRVNSIAFRADNKTILAADNHYRIRGYNFDSPRSDFDILREPHPIMTFSINSADRLALLNVSNQGLHLWDIEDKCLVRRFQGIRQSNFAIHSCFGGVNESFVASGSEDKVVYIWHIKREEPLAKLAGHTKTVNCVSWNPVYPSLLASASDDATVRIWGPKPNGSSATTESDDCSSSSSSSSWNMT
For B2, the binding entry in test [1] and in test [2] was “no binding” each time.

B3: Gus (protein, UniProt A1Z6E0 1-279)
chain: MGQKISGGVKTVSRNDSQSTFKPIIPRELQADFVKPARIDILLDMPPASRDLQLKHSWNSEDRSLNIFVKEDDKLTFHRHPVAQSTDCIRGKVGLTKGLHIWEIYWPTRQRGTHAVVGVCTADAPLHSVGYQSLVGSTEQSWGWDLGRNKLYHDSKNCAGVTYPAILKNDEAFLVPDKFLVALDMDEGTLSFIVDQQYLGIAFRGLRGKKLYPIVSAVWGHCEITMRYIGGLDPEPLPLMDLCRRTIRQKIGRTNLEEHIQQLQLPLSMKTYLLYKNRR
Take B3: the binding result in test [1] and in test [2] was “binds” each time.

B4: ME31B (protein, UniProt P23128 1-459)
chain: T1 sequence
For the molecule B4, the binding result in test [2] is listed as “binds”.

Source of the values: doi:10.1101/806968.
